From publication PMC12300445 come the findings set out here.

Amino acid sequences for entries named in this document (tags omitted).
UniProt Q16666: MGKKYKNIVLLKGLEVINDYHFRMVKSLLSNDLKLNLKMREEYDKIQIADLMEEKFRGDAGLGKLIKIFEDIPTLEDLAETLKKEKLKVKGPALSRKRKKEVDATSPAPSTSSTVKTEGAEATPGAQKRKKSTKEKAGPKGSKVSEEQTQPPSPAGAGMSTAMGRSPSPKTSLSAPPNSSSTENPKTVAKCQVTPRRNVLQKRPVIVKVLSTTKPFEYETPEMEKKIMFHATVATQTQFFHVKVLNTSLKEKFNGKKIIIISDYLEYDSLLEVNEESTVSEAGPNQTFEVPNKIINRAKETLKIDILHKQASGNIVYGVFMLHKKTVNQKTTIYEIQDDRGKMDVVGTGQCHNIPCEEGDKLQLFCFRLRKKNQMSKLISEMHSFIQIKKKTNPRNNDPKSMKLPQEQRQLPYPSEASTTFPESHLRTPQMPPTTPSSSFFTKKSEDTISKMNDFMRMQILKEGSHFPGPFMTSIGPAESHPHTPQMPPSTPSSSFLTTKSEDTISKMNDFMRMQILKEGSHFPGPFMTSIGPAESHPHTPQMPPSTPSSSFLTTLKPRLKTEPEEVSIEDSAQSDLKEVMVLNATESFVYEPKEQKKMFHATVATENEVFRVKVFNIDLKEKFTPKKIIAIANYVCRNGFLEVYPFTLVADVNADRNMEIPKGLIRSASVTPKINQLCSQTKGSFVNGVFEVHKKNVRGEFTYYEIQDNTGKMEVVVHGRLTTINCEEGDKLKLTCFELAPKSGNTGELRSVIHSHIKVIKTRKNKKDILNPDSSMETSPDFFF
UniProt Q14839: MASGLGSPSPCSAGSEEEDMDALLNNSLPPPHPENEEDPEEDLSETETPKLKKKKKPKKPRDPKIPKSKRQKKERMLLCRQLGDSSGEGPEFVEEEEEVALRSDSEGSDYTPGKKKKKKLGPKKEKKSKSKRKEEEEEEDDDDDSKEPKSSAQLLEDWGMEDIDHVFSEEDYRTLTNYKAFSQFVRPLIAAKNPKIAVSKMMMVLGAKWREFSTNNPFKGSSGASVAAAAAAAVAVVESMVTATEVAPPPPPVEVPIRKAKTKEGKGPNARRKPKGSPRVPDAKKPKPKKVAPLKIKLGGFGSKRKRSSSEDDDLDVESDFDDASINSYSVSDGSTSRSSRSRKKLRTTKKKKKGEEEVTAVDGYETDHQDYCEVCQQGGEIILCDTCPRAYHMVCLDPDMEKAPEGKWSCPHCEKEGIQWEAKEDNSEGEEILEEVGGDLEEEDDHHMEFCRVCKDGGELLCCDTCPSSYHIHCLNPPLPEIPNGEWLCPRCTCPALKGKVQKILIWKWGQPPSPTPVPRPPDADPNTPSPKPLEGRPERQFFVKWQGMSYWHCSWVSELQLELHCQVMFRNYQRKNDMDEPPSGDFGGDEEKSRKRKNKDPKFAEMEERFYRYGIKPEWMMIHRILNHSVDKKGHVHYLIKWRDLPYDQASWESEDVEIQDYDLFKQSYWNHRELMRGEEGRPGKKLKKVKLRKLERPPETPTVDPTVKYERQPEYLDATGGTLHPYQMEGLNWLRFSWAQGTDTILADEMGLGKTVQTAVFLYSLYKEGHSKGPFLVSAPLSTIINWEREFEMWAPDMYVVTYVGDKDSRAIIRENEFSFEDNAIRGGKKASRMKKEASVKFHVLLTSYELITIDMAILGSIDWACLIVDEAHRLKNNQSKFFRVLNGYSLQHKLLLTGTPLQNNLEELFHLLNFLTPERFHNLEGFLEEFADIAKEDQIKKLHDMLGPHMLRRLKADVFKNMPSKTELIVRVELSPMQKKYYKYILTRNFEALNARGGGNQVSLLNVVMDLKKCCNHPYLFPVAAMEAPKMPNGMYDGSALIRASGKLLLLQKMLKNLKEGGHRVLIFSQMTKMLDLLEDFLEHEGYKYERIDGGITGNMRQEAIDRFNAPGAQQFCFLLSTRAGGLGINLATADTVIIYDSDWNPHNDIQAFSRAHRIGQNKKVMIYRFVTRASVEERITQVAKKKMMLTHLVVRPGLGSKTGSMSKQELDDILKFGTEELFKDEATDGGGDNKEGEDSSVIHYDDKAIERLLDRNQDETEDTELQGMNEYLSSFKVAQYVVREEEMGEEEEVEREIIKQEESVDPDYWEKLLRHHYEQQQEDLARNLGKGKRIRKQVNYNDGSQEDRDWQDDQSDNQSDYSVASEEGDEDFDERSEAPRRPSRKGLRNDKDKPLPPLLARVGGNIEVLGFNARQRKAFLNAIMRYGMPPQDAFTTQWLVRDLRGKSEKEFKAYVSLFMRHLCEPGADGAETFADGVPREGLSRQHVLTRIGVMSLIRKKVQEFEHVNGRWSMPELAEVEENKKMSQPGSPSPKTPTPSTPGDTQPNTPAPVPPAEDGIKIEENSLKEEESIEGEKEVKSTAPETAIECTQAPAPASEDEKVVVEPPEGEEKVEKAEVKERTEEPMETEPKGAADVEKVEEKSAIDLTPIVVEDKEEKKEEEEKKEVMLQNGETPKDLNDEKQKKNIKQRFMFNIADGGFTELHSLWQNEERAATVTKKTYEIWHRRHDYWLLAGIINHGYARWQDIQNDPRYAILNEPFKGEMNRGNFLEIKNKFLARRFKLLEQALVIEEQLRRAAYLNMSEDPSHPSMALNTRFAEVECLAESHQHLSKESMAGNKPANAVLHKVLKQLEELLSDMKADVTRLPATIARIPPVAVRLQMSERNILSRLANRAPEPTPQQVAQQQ
UniProt Q92769: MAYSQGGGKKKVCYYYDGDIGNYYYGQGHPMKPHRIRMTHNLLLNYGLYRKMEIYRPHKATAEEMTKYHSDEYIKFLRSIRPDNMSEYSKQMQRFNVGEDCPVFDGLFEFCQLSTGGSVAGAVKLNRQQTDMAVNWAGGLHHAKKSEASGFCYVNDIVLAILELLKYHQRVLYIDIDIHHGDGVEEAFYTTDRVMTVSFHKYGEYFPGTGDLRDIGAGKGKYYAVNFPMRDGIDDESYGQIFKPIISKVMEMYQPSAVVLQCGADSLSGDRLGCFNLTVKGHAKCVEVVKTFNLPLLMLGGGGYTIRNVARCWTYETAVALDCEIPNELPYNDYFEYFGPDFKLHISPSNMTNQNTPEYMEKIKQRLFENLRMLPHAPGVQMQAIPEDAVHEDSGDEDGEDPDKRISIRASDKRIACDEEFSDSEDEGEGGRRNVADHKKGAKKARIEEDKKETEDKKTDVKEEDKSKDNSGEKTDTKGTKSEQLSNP
UniProt Q9UKL0: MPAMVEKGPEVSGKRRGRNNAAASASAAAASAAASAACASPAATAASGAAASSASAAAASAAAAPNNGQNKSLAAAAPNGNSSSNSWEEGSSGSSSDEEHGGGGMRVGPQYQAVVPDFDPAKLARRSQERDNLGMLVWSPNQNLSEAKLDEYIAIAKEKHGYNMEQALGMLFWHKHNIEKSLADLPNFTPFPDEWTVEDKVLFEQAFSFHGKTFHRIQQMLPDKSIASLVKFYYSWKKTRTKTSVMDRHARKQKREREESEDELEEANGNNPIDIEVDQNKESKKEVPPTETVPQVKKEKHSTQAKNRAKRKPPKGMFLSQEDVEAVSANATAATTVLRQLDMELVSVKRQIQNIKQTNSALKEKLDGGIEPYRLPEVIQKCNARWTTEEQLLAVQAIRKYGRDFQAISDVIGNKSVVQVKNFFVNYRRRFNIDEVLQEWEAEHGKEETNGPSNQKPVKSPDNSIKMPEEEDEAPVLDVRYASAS
UniProt Q13547: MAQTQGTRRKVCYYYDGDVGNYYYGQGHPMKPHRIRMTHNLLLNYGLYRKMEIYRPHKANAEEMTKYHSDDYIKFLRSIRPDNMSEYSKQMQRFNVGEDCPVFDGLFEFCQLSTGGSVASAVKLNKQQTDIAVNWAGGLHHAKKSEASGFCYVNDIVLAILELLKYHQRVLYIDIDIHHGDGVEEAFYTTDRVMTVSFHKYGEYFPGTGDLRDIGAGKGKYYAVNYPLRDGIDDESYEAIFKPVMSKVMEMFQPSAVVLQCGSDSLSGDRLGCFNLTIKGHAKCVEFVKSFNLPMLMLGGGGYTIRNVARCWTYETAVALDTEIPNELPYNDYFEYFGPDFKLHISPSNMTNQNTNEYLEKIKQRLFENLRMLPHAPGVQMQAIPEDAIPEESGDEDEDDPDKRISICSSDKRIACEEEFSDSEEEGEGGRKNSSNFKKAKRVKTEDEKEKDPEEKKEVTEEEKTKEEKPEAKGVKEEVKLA
UniProt Q09028: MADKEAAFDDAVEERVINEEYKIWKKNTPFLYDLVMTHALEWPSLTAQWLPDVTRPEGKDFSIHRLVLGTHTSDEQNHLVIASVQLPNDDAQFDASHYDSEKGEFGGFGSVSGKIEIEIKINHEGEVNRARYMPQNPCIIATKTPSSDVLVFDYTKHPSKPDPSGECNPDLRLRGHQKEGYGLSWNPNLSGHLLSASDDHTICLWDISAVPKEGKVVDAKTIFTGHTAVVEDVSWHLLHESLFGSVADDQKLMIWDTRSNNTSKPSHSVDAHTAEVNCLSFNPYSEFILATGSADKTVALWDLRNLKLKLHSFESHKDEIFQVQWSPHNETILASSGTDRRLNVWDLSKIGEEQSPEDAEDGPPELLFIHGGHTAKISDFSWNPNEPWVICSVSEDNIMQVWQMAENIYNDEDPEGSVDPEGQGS

No constants are given. Whether binding was seen depends on the method and setting. In cells and extracts the contact can be indirect. Here binding means that the protein was enriched with, or labelled near, the bait; the list need not be complete. A no says only that the protein was not detected with the bait.

To fix the notation:
B1: SAP18 (protein, UniProt O00422 1-153)
chain: MAVESRVTQEEIKKEPEKPIDREKTCPLLLRVFTTNNGRHHRMDEFSRGNVPSSELQIYTWMDATLKELTSLVKEVYPEARKKGTHFNFAIVFTDVKRPGYRVKEIGSTMSGRKGTDDSMTLQSQKFQIGDYLDIAITPPNRAPPPSGRMRPY

For the assay, the target named is interferon gamma-inducible protein 16 (IFI16) (human (endogenous in BCBL-1)) (UniProt Q16666). Kind of assay: affinity purification with mass spectrometry; 500 ug pre-cleared BCBL-1 whole cell lysate immunoprecipitated overnight at 4 °C with anti-IFI16 mouse monoclonal or rabbit polyclonal antibody or IgG; Protein A/G Dynabeads; on-bead trypsin digestion, LC-MS/MS, label-free quantification; enriched at Log2FC ≥ 0.6 over IgG.
For CHD4 (from UniProt Q14839 1-1912), the binding result is “binds”.
For the molecule “histone deacetylase 2 (HDAC2) (from UniProt Q92769 1-488) (enzyme)”, the binding result is “binds”.
As to CoREST (from UniProt Q9UKL0 1-485), the binding entry is listed as “no binding”.
“histone deacetylase 1 (HDAC1) (from UniProt Q13547 1-482) (enzyme)”: the binding result is on record as “binds”.
In the case of “RBBP4 (RbAp48) (from UniProt Q09028 1-425)” it was “binds”; in that of B1, “binds”.
